# Laboratory results published in the supplement of paper PMC4604168 (melanoma cell lines).
# This is one part of the list. Repeats are few or missing, and single values can be far off.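 The apoptosis fraction was the count of cleaved-PARP antibody-stained nuclei relative to all DNA-stained nuclei, imaged in 1,536-well plates. Screening doses were set so most cells survived, and baseline and induced cleaved-PARP levels vary greatly across cell lines.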
# Legend:
# Assay in all cases: cleaved PARP positive nuclei fraction relative to DMSO control; melanoma cells; higher = more apoptosis
# Details in all cases: library dose: low library concentration; 72 h
# MZ2-MEL = tested on: MZ2-MEL
# MeWo = tested on: MeWo
# RPMI7951 = tested on: RPMI7951
# RVH-421 = tested on: RVH-421
# SkMel28 = tested on: SkMel28
# SkMel2 = tested on: SkMel2
# SkMel30 = tested on: SkMel30
# UACC62 = tested on: UACC62
# WM115 = tested on: WM115
# WM1716 = tested on: WM1716
# WM1745 = tested on: WM1745
# WM3526 = tested on: WM3526
# WM3619 = tested on: WM3619
# WM451Lu = tested on: WM451Lu
Compound,cleaved PARP positive nuclei fraction (MZ2-MEL) [%],cleaved PARP positive nuclei fraction (MeWo) [%],cleaved PARP positive nuclei fraction (RPMI7951) [%],cleaved PARP positive nuclei fraction (RVH-421) [%],cleaved PARP positive nuclei fraction (SkMel28) [%],cleaved PARP positive nuclei fraction (SkMel2) [%],cleaved PARP positive nuclei fraction (SkMel30) [%],cleaved PARP positive nuclei fraction (UACC62) [%],cleaved PARP positive nuclei fraction (WM115) [%],cleaved PARP positive nuclei fraction (WM1716) [%],cleaved PARP positive nuclei fraction (WM1745) [%],cleaved PARP positive nuclei fraction (WM3526) [%],cleaved PARP positive nuclei fraction (WM3619) [%],cleaved PARP positive nuclei fraction (WM451Lu) [%]
"CN1CCN(c2ccc3nc(-c4c(N)c5c(F)cccc5[nH]c4=O)[nH]c3c2)CC1 [Dovitinib] + Cn1c(Nc2ccc(C(F)(F)F)cc2)nc2cc(Oc3ccnc(-c4ncc(C(F)(F)F)[nH]4)c3)ccc21 [CHIR265] (first compound 0.1 µM, partner dose 0.08 µM)",319,125,103,451,91.2,70.5,121,165,441,128,155,84.4,92.3,54
"CCCS(=O)(=O)Nc1ccc(F)c(C(=O)c2c[nH]c3ncc(Cl)cc23)c1F + Cn1nnc2c(C(N)=O)ncn2c1=O [temozolomide] (first compound 0.08 µM, partner dose 2 µM)",120,158,77.6,139,48.2,58.8,232,420,87.8,345,96.1,250,100,54
"CS(=O)(=O)CCNCc1ccc(-c2ccc3ncnc(Nc4ccc(OCc5cccc(F)c5)c(Cl)c4)c3c2)o1 [lapatinib] + Nc1nc(F)nc2c1ncn2[C@@H]1O[C@H](CO)[C@@H](O)[C@@H]1O [fludarabine] (first compound 0.8 µM, partner dose 0.2 µM)",143,609,160,105,44,249,1090,202,130,60.7,89.2,103,81.2,125
"O=C(O)[C@@H]1[O][Sb](=[O])([O][Sb]2(=[O])[O][C@H]([C@H](O)CO)[C@H](O)[C@H](C(=O)O)[O]2)[O][C@H]([C@H](O)CO)[C@@H]1O (stereo partly specified) [stibogluconate] + Nc1ccn([C@@H]2O[C@H](CO)[C@@H](O)C2(F)F)c(=O)n1 [gemcitabine] (first compound 2 µM, partner dose 0.0004 µM)",278,141,50.8,543,115,96.1,41.6,93.3,56.2,112,137,153,148,153
"Cn1c(=O)n(-c2ccc(C(C)(C)C#N)cc2)c2c3cc(-c4cnc5ccccc5c4)ccc3ncc21 + Cn1nnc2c(C(N)=O)ncn2c1=O [temozolomide] (first compound 0.004 µM, partner dose 2 µM)",136,77,74,56.3,88.7,101,116,371,82.8,78.8,98.1,44.3,93.5,67.1
"Nc1ccn([C@@H]2O[C@H](CO)[C@@H](O)C2(F)F)c(=O)n1 [gemcitabine] + C[C@]1(c2nc3c(C(N)=O)cccc3[nH]2)CCCN1 [Veliparib] (first compound 0.0004 µM, partner dose 1.4 µM)",158,70.2,308,86.1,89.4,76.2,65.5,81,114,117,126,75,229,177
"CN1CCN(c2ccc3nc(-c4c(N)c5c(F)cccc5[nH]c4=O)[nH]c3c2)CC1 [Dovitinib] + C#Cc1cccc(Nc2ncnc3cc(OCCOC)c(OCCOC)cc23)c1 [erlotinib] (first compound 0.1 µM, partner dose 0.8 µM)",121,124,118,109,93.2,131,114,115,85.9,54.6,379,83.6,94.9,65
"Cn1c(=O)n(-c2ccc(C(C)(C)C#N)cc2)c2c3cc(-c4cnc5ccccc5c4)ccc3ncc21 + O=C(O)c1ccc2c(c1)nc(Nc1cccc(Cl)c1)c1ccncc12 [CX4945] (first compound 0.004 µM, partner dose 0.4 µM)",130,67,155,116,303,57,40.8,73.3,139,37.3,96.9,65.5,104,358
"CNC(=O)c1cc(Oc2ccc(NC(=O)Nc3ccc(Cl)c(C(F)(F)F)c3)cc2)ccn1 [sorafenib] + CCCS(=O)(=O)Nc1ccc(F)c(C(=O)c2c[nH]c3ncc(Cl)cc23)c1F [PLX4720] (first compound 0.4 µM, partner dose 0.08 µM)",84.5,121,55.3,73.2,57.6,102,50.1,206,120,128,92.9,117,85.4,87.4
"Nc1ccn([C@@H]2O[C@H](CO)[C@@H](O)C2(F)F)c(=O)n1 [gemcitabine] + Nc1nc(F)nc2c1ncn2[C@@H]1O[C@H](CO)[C@@H](O)[C@@H]1O [fludarabine] (first compound 0.0004 µM, partner dose 0.2 µM)",117,454,40.9,203,199,246,732,45.4,178,75.2,157,814,181,80.2
"CN1CCN(c2ccc3nc(-c4c(N)c5c(F)cccc5[nH]c4=O)[nH]c3c2)CC1 [Dovitinib] + CC(=O)c1c(C)c2cnc(Nc3ccc(N4CCNCC4)cn3)nc2n(C2CCCC2)c1=O [palbociclib] (first compound 0.1 µM, partner dose 0.04 µM)",88.6,183,127,81.2,116,136,165,96.1,60,43,137,86.8,128,68.4
"Cn1c(=O)n(-c2ccc(C(C)(C)C#N)cc2)c2c3cc(-c4cnc5ccccc5c4)ccc3ncc21 + C[C@]1(c2nc3c(C(N)=O)cccc3[nH]2)CCCN1 [Veliparib] (first compound 0.004 µM, partner dose 1.4 µM)",117,118,43,145,97.4,43.5,62.6,260,132,115,94.5,42.3,91.8,52.3
"CN1CCN(c2ccc3nc(-c4c(N)c5c(F)cccc5[nH]c4=O)[nH]c3c2)CC1 [Dovitinib] + Cn1nnc2c(C(N)=O)ncn2c1=O [temozolomide] (first compound 0.1 µM, partner dose 2 µM)",249,134,119,117,112,111,273,160,134,87.6,121,223,87.5,237
"Nc1ccn([C@@H]2O[C@H](CO)[C@@H](O)C2(F)F)c(=O)n1 [gemcitabine] + Clc1ccc(Nc2nnc(Cc3ccncc3)c3ccccc23)cc1 [vatalanib] (first compound 0.0004 µM, partner dose 2 µM)",39.5,81.8,122,122,97.1,193,156,49.7,213,94.3,155,63.1,177,41
"O=C(O)[C@@H]1[O][Sb](=[O])([O][Sb]2(=[O])[O][C@H]([C@H](O)CO)[C@H](O)[C@H](C(=O)O)[O]2)[O][C@H]([C@H](O)CO)[C@@H]1O (stereo partly specified) [stibogluconate] + CNC(=O)c1cc(Oc2ccc(NC(=O)Nc3ccc(Cl)c(C(F)(F)F)c3)cc2)ccn1 [sorafenib] (first compound 2 µM, partner dose 0.4 µM)",106,48.5,171,107,67.8,81.1,66.7,26.8,63.8,103,100,144,95.1,89.4
"Cn1c(=O)n(-c2ccc(C(C)(C)C#N)cc2)c2c3cc(-c4cnc5ccccc5c4)ccc3ncc21 + COc1ccc(Cl)c(Nc2nc3ccccc3nc2NS(=O)(=O)c2cccc(NC(=O)C(C)(C)N)c2)c1 [XL147] (first compound 0.004 µM, partner dose 0.8 µM)",102,68.7,70.3,114,104,179,208,144,84.9,121,106,83.6,92.9,29.9
"O=C(O)c1ccc2c(c1)nc(Nc1cccc(Cl)c1)c1ccncc12 + Cn1nnc2c(C(N)=O)ncn2c1=O [temozolomide] (first compound 0.4 µM, partner dose 2 µM)",155,110,282,78,83.6,52.9,25,132,115,161,95.8,50.7,95.1,480
"Cn1c(=O)n(-c2ccc(C(C)(C)C#N)cc2)c2c3cc(-c4cnc5ccccc5c4)ccc3ncc21 + Nc1ncn([C@H]2C[C@H](O)[C@@H](CO)O2)c(=O)n1 [decitabine] (first compound 0.004 µM, partner dose 0.1 µM)",153,86.3,34.2,88,51.9,101,51.8,90.7,99.5,182,105,99,125,90.6
"CNC(=O)c1cc(Oc2ccc(NC(=O)Nc3ccc(Cl)c(C(F)(F)F)c3)cc2)ccn1 [sorafenib] + O=C(O)c1ccc2c(c1)nc(Nc1cccc(Cl)c1)c1ccncc12 [CX4945] (first compound 0.4 µM, partner dose 0.4 µM)",53.7,79.2,92.6,162,117,56.8,102,134,138,70,166,88.5,81.9,87.3

# A different layout for part of the listing above.
Compound	cleaved PARP positive nuclei fraction (MZ2-MEL) [%]	cleaved PARP positive nuclei fraction (MeWo) [%]	cleaved PARP positive nuclei fraction (RPMI7951) [%]	cleaved PARP positive nuclei fraction (RVH-421) [%]	cleaved PARP positive nuclei fraction (SkMel28) [%]	cleaved PARP positive nuclei fraction (SkMel2) [%]	cleaved PARP positive nuclei fraction (SkMel30) [%]	cleaved PARP positive nuclei fraction (UACC62) [%]	cleaved PARP positive nuclei fraction (WM115) [%]	cleaved PARP positive nuclei fraction (WM1716) [%]	cleaved PARP positive nuclei fraction (WM1745) [%]	cleaved PARP positive nuclei fraction (WM3526) [%]	cleaved PARP positive nuclei fraction (WM3619) [%]	cleaved PARP positive nuclei fraction (WM451Lu) [%]
O=C(O)[C@@H]1[O][Sb](=[O])([O][Sb]2(=[O])[O][C@H]([C@H](O)CO)[C@H](O)[C@H](C(=O)O)[O]2)[O][C@H]([C@H](O)CO)[C@@H]1O (stereo partly specified) [stibogluconate] + Nc1ccn([C@@H]2O[C@H](CO)[C@@H](O)C2(F)F)c(=O)n1 [gemcitabine] (first compound 2 µM, partner dose 0.0004 µM)	278	141	50.8	543	115	96.1	41.6	93.3	56.2	112	137	153	148	153
Cn1c(=O)n(-c2ccc(C(C)(C)C#N)cc2)c2c3cc(-c4cnc5ccccc5c4)ccc3ncc21 + COc1ccc(Cl)c(Nc2nc3ccccc3nc2NS(=O)(=O)c2cccc(NC(=O)C(C)(C)N)c2)c1 [XL147] (first compound 0.004 µM, partner dose 0.8 µM)	102	68.7	70.3	114	104	179	208	144	84.9	121	106	83.6	92.9	29.9
